Experiment [1] deals with T1, recombinant MFAP4 (rMFAP4), wild-type (human) (UniProt P55083).
T1 sequence (looked up): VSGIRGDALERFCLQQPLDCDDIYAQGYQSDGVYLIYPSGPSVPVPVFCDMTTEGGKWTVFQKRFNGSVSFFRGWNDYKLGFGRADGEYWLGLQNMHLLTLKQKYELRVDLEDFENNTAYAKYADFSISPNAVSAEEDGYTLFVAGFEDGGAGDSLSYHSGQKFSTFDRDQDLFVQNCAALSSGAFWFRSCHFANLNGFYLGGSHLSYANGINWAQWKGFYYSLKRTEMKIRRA
The experiment is described as follows: ELISA, antibody as capture.

The target in experiment [2] is T1, recombinant MFAP4 (rMFAP4), wild-type (human). Description: ELISA.

These are yes or no findings as the source states them, for the method shown. Some entries that bind do so weakly or less than the wild type.

B1: HG-HYB 7-5 (antibody, V domains shown)
VH: EVQLQQSGPELVKPGASVKLSCKTSGYTFTSYDMNWVKQRPGQGLEWIGWIFPRDGSTKFNEKFKGKATLTVDTSSTTAYMELHSLTSEDSAVYFCARAEIFFDYGFDYWGQGTTLTVSS
VL: DIVMTQSTALMAASPGEKVTITCSVSSSISSSNLHWYQQKSETSPKSWIYGTSNLASGVPGRFSGSGSGTSYSLTISSVEAEDAATYYCQQWSSYPLTFGGGTKLEIK
Turning to B1, the binding entry in experiment [1] is listed as “binds”.

B2: HG-HYB 7-14 (antibody, V domains shown)
VH: EVKVVESGGGLVQPGGSLRLSCATSGFTFSDFYMEWVRQPPGKRLEWIAASRNKANDYTTEYSASVKGRFIVSRDTSQSILYLQLNALRAEDTAIYYCARNYYDSSYWYFDVWGAGTTVTVSS
VL: DIVLTQSPSYLAASPGETITINCRASKSISKYLAWYQERPGKTNKLLIYSGSTLQSGIPSRFSGSGSGTDFTLTISSLEPEDFAMYYCQQHNEYPFTFGAGTKLELK
notes: Monoclonal antibody raised in MFAP4-deficient C57BL/6N mice against rMFAP4; also called FITC-anti-MFAP4 (HG-HYB 7-14)
Consider B2, for which the binding result in experiment [2] is given as “binds”.

The values above are taken from US20150361165A1 (SYDDANSK UNIVERSITET, published 2015).
